{"source": "PubChem BioAssay AID901", "about": "(National Center for Advancing Translational Sciences (NCATS), 2007)", "note": "This is one part of the list. These are further read-outs of the screen, such as a control signal, another cell line or another target. No call is given for them. The list favours compounds with an active or inconclusive main result. The note in brackets gives the kind of curve behind each potency; many fits are weak.", "data": [{"experiment": "qHTS Assay for Identifying the Cell-Membrane Permeable IMPase Inhibitors", "settings": "CHO-M1 cells, IP1 accumulation, HTRF TR-FRET ratio; measured here: donor channel 620 nm AC50", "values": [{"smiles": "CCOC(=O)c1cc(OC(=O)c2ccc(OC)cc2)n(-c2ccccc2)n1", "AC50": "35.5 µM [rising, single point]"}, {"smiles": "COc1ccc(-c2nc(CS(=O)(=O)CC(=O)NCCc3cc(OC)ccc3OC)c(C)o2)cc1", "AC50": "3.98 µM [falling, single point]"}, {"smiles": "O=C(NCCCn1ccnc1)c1ccc(Br)c(S(=O)(=O)N2CCOCC2)c1", "AC50": "12.6 µM [rising, partial curve]"}, {"smiles": "CS(=O)(=O)N(CC(=O)NCCSCc1ccccc1)c1cc(C(F)(F)F)ccc1Cl", "AC50": "35.5 µM [falling, single point]"}, {"smiles": "Cc1cc(NC(=O)CCC(=O)N(CC(=O)NC2CCCC2)Cc2ccccc2Cl)no1", "AC50": "31.6 µM [falling, single point]"}, {"smiles": "C=CCc1ccccc1OCC(O)CN(C(C)C)C(C)C", "note": "(configuration not stated)", "AC50": "0.316 µM [rising, full curve, poor fit]"}, {"smiles": "Fc1ccccc1Cn1nnc2c(NCCc3ccccn3)ncnc21", "AC50": "20 µM [falling, single point]"}, {"smiles": "CCOC(=O)c1nn(-c2ccc(Cl)cc2)c2nc(-c3ccc(C)cc3)c(C#N)c(=O)n12", "AC50": "31.6 µM [rising, single point]"}, {"smiles": "CCCCCc1ccc(-c2ccc(C(=O)Oc3ccc(C(=O)OC)cc3)cc2)nc1", "AC50": "0.501 µM [falling, full curve]"}, {"smiles": "COc1ccc(CNc2oc(-c3cccc4ccccc34)nc2C#N)cc1", "AC50": "11.2 µM [rising, partial curve, poor fit]"}, {"smiles": "COC(=O)c1ccc(NC(=O)CSc2nnc(CNc3ccc(F)cc3)n2C)cc1", "AC50": "5.01 µM [rising, single point]"}, {"smiles": "CCOc1ccc(C(=O)NC(=S)Nc2ccccn2)cc1[N+](=O)[O-]", "AC50": "3.16 µM [falling, partial curve, poor fit]"}, {"smiles": "Cc1nc2c(C)cccc2cc1C(=O)N/N=C/c1ccc(N(C)C)cc1", "AC50": "31.6 µM [falling, single point]"}, {"smiles": "COC(=O)c1ccccc1NC(=O)Cn1c(SC)c(F)cnc1=O", "AC50": "22.4 µM [falling, single point]"}, {"smiles": "CC(O)CNc1ncnc2nc[nH]c12", "note": "(configuration not stated)", "AC50": "0.398 µM [rising, partial curve, poor fit]"}, {"smiles": "CC(=O)c1sc(NC(=O)C2COc3ccccc3O2)nc1C", "note": "(configuration not stated)", "AC50": "35.5 µM [rising, single point]"}, {"smiles": "CC(C)c1nc(-c2ccccn2)no1", "AC50": "0.0631 µM [rising, full curve, poor fit]"}, {"smiles": "Cc1ccc(C(=O)Nc2c(C(=O)NCc3ccco3)cnn2-c2ccccc2)cc1", "AC50": "6.31 µM [falling, full curve]"}, {"smiles": "Cc1cc(C)c2nc(-c3ccccn3)cc(C(=O)NCc3ccco3)c2c1", "AC50": "6.31 µM [falling, full curve]"}, {"smiles": "Nn1c(SCC(=O)Nc2ccccc2F)nnc1-c1cccnc1", "AC50": "0.794 µM [rising, full curve, poor fit]"}, {"smiles": "CCOC(=O)CSc1cc(=O)n(CC)c2ccccc12", "AC50": "12.6 µM [rising, partial curve]"}, {"smiles": "CCC(Sc1ccc(C(=O)O)cc1)C(=O)O", "note": "(configuration not stated)", "AC50": "0.0631 µM [falling, full curve, poor fit]"}, {"smiles": "COCCCN1C(=O)C(=O)/C(=C(/O)c2ccc3c(c2)CC(C)O3)C1c1cccnc1", "note": "(configuration not stated)", "AC50": "12.6 µM [rising, partial curve]"}, {"smiles": "O=C(O)C1CCCN1C(=O)Oc1ccccc1", "note": "(configuration not stated)", "AC50": "0.0501 µM [falling, full curve]"}, {"smiles": "Cc1nc(S/C(=C/c2ccc(-c3cccc(Cl)c3)o2)C(=O)O)n[nH]1", "AC50": "20 µM [falling, partial curve]"}, {"smiles": "CCCn1nnc(NC(=O)COc2ccc(Cl)cc2)n1", "AC50": "1.26 µM [rising, full curve, poor fit]"}, {"smiles": "CC1Cc2cc(/C(O)=C3\\C(=O)C(=O)N(CCN4CCOCC4)C3c3ccccc3F)ccc2O1", "note": "(configuration not stated)", "AC50": "12.6 µM [rising, partial curve]"}, {"smiles": "CCc1ccc(CCC(=O)Nc2ccc(C(C)=O)cc2)o1", "AC50": "0.501 µM [falling, full curve]"}, {"smiles": "Cc1ccc(CNC(=O)CCCn2c(=O)c3ccccc3n(Cc3ccccc3Cl)c2=O)cc1", "AC50": "25.1 µM [rising, partial curve]"}, {"smiles": "CCCCOc1ccc(NC(=O)c2cc3c(n(-c4ccc(Cl)cc4)c2=O)CCCC3=O)cc1", "AC50": "0.0251 µM [rising, full curve]"}, {"smiles": "CCOC(=O)N1CCC(NC(=O)CN2C(=O)CSc3ncccc32)CC1", "AC50": "3.98 µM [falling, partial curve, poor fit]"}, {"smiles": "O=C(Nc1nc2ccccc2n1CCOc1ccccc1Cl)c1ccccc1", "AC50": "11.2 µM [rising, partial curve]"}, {"smiles": "CCCN1CCN(CCCNC(=O)Cn2nc(-c3ccccc3)ccc2=O)CC1", "AC50": "20 µM [falling, partial curve]"}, {"smiles": "Cc1nn(Cc2ccc(Cl)cc2)c(C)c1NC(=O)CSc1nc2c(c(C(F)(F)F)n1)CCc1ccccc1-2", "AC50": "31.6 µM [rising, single point]"}, {"smiles": "COc1cc(NC(=S)NC(=O)c2cc(C)cc(C)c2)ccc1NC(=O)c1cccs1", "AC50": "5.62 µM [falling, single point]"}, {"smiles": "Cc1cccc(OCCC(=O)NCC(=O)Nc2c(C)cccc2C)c1", "AC50": "0.0316 µM [falling, full curve, poor fit]"}, {"smiles": "CCCCNC(=O)CCSc1nc(-c2ccc3c(c2)OCO3)cc(C(F)(F)F)n1", "AC50": "0.0316 µM [falling, full curve]"}, {"smiles": "O=C(NC1c2ccccc2-c2ccccc21)c1ccco1", "AC50": "0.0126 µM [rising, full curve, poor fit]"}, {"smiles": "Nc1c(S(=O)(=O)c2cc(Cl)ccc2Cl)c2nc3ccccc3nc2n1CCN1CCOCC1", "AC50": "20 µM [falling, single point]"}, {"smiles": "N#Cc1c(NC(=O)CSc2nc3c(c(C(F)(F)F)n2)CCc2ccccc2-3)sc2c1CCCC2", "AC50": "0.1 µM [rising, single point]"}, {"smiles": "CCC1CCc2c(sc(NC(=O)C3c4ccccc4Oc4ccccc43)c2C(=O)OC)C1", "note": "(configuration not stated)", "AC50": "5.01 µM [rising, single point]"}, {"smiles": "CC(=O)N1CCc2cc(S(=O)(=O)NC(C(=O)NCc3ccccc3)C(C)C)ccc21", "note": "(configuration not stated)", "AC50": "0.126 µM [falling, partial curve]"}]}]}
